# US20020110607A1, “Hair restorer containing vetiver grass extract” (priority 1999, published 2002)
# For at least one compound, name, drawing or mass did not settle the structure.
# Tested on: hair loss on scalp, adult-onset male-pattern baldness (androgenetic alopecia)
# Assay: Treatment of human male with an aqueous extract (Example 2)
# Type: in vivo
# Conditions: same individual; quantity and duration suggested by the manufacturer, twelve months
structure (smiles),measurement,value
"Nc1cc(N2CCCCC2)nc(N)[n+]1[O-] [Rogaine, minoxidil]",response to treatment (hair growth),had not responded
